# Measurements taken from patent US9783545B2, “Pyrazolopyridazines and methods for treating retinal-degenerative diseases and hearing loss associated with usher syndrome” (Usher III Initiative, Inc., priority 2012, dated 2017).
# Protein sequences, listed by entry. Tags and fused reporters are not part of them.
# UniProt P58418, whole entry N48K: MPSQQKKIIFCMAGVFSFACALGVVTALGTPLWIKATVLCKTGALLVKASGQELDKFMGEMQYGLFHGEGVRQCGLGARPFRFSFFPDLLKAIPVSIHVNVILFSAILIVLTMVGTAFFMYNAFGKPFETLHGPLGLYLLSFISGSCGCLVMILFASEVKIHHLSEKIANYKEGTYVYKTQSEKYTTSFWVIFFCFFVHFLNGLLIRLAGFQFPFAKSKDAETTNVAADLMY
# The structures given here were assigned with low confidence; some may be wrong.
# Biological target: N48K Clarin-1 (Homo sapiens, UniProt P58418, N48K)
# Test: Restoration of expression of N48K Clarin-1, 24 hour incubation (high content imaging of HA-tagged N48K Clarin-1)
# Conditions: HEK293-Clarin-1 N48K-HA D9 cell line, 24 hr incubation with compound
# Method: Assay Method Showing Activity of Compounds of the Invention that Restore Expression of N48K Clarin-1 (24 hour incubation)
# Clarin-1 is the protein encoded by the gene mutated in Usher III Syndrome (Adato et al., 2002). The most prevalent mutation in Clarin-1 in North America is N48K, which is reported to cause loss of glycosylation and a trafficking defect (Tian et al., 2009). […] Thus it is believed that restoring the trafficking of N48K Clarin-1 to the cell surface provides an avenue of intervention for Usher III Sydrome. […]
# The HA-tagged N48K Clarin-1 was detected with an antibody against the HA tag (HA.11 Clone 16B12 Monoclonal antibody, Covance #MMS-101P) at a dilution of 1:1000 in PBS containing Triton X-100. […] The imaging of the stained cells was performed on an InCell 1000 High Content Imager (GE Healthcare), reading out the Cy3 channel for N48K Clarin-1 and the DAPI channel for nuclei. The images were analyzed and quantitated using a specific algorithm. This algorithm measured the HA-Clarin-1 staining for each cell based on the additional nuclear segmentation of the DAPI signal (FIG. 1). This algorithm measured the intensity per cell, and thus it is less sensitive for variation in cell number. Per well, approximately 2,000 cells were measured to achieve an average density per cell measurement. […]
structure (smiles),measurement,value
OCCn1nc(-c2cccnc2)c2c(Cl)c(-c3ccccc3)nnc21,EC50,< 2000 nM
